This is one part of the list.
Columns and labels:
Assay in all cases: log2 fold change, soluble protein after heating vs DMSO (PISA); higher = thermal stabilisation; K562 cells, 10 uM, 30 min; active = over 0.2 and 3.5 SD of the protein, either way, in both replicates (recomputed)
[1] = compound: NC(=O)Nc1cc(-c2cccc(F)c2)sc1C(=O)N[C@H]1CCCNC1
Summary of the method: (§1)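 Thermal stability values are relative to control samples and come from duplicates. They are expressed as log2 fold changes. For measurement, K562 cells (2×10^6 cells/mL) received 10 μM compound for 30 min, and aliquots were heated for 3 min over 48°C-58°C, pooled, and extracted at 4°C in PBS with 0.5% NP-40. Soluble protein, the supernatant after 21,000xg for 90 min, was quantified by TMTpro 16plex LC-MS/MS with equalised channel sums.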

By UniProt entry, the sequences of proteins in these tests, tags left out. Where a name states a change or a piece, a line headed by the entry shows the natural chain unless it says otherwise.
UniProt Q04726: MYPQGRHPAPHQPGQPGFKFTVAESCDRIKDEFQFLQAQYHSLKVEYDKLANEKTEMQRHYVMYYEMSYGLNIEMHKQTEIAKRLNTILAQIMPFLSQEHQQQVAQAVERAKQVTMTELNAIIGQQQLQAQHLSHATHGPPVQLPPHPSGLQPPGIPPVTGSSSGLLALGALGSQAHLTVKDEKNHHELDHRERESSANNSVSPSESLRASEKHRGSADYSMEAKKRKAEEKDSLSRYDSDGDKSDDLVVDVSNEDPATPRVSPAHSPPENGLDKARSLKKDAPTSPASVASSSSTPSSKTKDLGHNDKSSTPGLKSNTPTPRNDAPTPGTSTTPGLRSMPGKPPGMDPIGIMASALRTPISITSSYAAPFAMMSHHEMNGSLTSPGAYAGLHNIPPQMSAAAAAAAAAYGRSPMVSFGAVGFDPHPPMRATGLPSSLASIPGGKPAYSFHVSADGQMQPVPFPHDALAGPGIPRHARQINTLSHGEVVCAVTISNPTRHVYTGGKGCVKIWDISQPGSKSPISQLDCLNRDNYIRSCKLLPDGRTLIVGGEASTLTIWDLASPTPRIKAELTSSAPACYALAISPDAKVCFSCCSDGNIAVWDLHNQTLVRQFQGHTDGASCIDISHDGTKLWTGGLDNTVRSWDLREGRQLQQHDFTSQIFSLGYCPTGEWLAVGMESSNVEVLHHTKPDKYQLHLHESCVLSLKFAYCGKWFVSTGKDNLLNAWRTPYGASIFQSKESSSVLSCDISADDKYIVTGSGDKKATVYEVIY
UniProt P29401: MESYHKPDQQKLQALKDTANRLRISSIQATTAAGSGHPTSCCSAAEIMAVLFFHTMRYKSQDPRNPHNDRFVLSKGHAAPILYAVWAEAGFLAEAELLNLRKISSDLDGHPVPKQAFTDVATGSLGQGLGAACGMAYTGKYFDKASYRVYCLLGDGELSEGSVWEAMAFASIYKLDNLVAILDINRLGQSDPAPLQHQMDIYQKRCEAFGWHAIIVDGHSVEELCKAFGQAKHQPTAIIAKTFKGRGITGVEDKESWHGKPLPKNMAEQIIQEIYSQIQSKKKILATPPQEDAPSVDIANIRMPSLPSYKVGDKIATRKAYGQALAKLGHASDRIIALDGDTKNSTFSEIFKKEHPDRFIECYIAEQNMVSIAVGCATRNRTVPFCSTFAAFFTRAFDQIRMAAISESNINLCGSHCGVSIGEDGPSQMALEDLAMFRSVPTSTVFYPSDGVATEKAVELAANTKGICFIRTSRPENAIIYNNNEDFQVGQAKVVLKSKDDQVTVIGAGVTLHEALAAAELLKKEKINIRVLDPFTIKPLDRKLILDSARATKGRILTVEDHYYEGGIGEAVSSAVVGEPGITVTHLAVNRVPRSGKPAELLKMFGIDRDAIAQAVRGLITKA
UniProt Q92734, whole entry, looked up: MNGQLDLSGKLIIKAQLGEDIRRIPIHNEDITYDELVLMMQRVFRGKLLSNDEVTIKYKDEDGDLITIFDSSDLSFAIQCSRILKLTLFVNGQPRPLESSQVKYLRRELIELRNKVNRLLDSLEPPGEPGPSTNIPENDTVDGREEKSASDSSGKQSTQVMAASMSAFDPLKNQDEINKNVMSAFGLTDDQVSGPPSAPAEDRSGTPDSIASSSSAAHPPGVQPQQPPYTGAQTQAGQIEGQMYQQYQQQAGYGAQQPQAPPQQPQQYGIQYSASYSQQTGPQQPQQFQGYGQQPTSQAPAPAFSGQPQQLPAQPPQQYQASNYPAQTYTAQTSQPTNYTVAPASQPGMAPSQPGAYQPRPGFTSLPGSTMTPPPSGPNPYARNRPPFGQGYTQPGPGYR
UniProt Q03167: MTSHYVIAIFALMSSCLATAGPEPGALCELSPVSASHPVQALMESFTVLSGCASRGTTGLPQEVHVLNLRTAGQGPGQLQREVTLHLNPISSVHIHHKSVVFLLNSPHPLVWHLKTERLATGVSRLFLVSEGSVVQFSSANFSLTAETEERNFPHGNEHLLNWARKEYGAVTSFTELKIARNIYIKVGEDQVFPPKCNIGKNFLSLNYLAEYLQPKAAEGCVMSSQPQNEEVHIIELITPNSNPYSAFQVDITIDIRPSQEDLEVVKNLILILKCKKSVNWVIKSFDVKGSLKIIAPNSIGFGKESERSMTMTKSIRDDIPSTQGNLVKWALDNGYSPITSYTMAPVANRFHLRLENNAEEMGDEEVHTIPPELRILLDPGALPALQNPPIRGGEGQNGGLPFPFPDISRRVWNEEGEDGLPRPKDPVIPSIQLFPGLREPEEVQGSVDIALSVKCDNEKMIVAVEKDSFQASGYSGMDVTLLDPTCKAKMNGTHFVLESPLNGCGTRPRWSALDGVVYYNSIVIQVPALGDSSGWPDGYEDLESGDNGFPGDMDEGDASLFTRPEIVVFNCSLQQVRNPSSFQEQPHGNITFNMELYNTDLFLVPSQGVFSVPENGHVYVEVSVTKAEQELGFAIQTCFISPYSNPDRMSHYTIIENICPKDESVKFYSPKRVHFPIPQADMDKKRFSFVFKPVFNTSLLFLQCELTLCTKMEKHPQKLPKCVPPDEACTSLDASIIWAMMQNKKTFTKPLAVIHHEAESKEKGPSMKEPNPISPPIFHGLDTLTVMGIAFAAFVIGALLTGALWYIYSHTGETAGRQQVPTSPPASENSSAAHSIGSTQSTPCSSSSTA
UniProt O60907: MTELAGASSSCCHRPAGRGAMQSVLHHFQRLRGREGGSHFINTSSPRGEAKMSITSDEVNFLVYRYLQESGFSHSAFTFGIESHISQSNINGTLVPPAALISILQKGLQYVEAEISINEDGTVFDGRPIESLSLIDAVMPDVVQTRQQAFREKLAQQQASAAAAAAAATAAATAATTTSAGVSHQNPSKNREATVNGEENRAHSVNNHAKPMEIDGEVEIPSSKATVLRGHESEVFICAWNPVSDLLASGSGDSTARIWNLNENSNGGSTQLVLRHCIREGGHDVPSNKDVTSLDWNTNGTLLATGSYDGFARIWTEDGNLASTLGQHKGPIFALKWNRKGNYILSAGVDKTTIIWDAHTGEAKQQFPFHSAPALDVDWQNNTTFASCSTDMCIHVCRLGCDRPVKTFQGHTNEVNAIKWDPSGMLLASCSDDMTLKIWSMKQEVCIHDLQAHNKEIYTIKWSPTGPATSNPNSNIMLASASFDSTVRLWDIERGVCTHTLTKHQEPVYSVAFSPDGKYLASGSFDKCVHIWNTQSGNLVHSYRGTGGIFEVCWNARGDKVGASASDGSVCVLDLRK
UniProt Q9BV44: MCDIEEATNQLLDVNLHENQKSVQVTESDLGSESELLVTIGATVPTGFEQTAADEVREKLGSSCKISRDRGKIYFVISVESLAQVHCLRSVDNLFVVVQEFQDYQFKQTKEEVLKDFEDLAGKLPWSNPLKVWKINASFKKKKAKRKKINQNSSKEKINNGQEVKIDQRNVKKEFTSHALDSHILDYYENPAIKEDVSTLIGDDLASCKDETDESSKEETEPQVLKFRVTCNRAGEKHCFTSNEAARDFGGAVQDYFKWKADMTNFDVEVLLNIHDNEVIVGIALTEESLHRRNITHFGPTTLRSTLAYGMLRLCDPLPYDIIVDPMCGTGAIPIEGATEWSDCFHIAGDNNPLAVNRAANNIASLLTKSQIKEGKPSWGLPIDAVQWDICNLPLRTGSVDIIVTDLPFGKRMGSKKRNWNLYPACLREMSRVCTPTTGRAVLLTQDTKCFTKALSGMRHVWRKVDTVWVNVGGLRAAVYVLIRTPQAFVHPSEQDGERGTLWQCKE
UniProt P62072: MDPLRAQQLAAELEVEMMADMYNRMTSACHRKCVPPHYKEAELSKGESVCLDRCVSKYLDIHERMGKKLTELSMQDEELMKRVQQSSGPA
UniProt Q9H5Q4: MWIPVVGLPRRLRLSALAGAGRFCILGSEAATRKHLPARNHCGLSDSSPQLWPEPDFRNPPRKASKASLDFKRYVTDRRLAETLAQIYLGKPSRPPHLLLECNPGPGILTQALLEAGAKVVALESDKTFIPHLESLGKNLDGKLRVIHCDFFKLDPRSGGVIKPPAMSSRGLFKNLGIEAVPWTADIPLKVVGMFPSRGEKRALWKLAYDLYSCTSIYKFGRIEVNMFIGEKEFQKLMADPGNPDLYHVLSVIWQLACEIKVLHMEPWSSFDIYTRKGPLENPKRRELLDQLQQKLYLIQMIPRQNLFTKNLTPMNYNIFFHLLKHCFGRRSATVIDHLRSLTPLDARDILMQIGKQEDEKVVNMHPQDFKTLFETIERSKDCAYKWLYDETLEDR
UniProt Q6I9Y2: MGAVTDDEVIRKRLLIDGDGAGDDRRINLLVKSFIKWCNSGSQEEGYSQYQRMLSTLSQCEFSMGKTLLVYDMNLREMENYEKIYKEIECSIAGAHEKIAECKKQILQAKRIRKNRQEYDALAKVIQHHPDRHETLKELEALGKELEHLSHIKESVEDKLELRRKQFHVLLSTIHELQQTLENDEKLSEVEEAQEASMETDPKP
UniProt Q969Z0: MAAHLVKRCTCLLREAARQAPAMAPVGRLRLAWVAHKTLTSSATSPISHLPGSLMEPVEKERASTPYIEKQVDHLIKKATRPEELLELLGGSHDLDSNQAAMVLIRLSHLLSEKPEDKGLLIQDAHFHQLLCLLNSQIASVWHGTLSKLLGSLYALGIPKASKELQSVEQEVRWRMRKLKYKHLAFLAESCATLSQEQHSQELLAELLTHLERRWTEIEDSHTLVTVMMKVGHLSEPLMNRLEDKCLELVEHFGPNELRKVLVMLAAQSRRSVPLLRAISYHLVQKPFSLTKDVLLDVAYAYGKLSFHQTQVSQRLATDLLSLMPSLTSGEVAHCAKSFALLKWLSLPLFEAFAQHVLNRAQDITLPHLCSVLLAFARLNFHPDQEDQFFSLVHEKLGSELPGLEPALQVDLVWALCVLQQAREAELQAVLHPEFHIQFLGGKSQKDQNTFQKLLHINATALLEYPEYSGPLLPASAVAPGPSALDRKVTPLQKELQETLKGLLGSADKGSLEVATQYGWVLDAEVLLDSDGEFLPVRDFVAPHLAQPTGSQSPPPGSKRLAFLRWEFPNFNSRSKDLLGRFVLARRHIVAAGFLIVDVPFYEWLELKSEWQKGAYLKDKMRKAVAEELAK
UniProt Q8TC07: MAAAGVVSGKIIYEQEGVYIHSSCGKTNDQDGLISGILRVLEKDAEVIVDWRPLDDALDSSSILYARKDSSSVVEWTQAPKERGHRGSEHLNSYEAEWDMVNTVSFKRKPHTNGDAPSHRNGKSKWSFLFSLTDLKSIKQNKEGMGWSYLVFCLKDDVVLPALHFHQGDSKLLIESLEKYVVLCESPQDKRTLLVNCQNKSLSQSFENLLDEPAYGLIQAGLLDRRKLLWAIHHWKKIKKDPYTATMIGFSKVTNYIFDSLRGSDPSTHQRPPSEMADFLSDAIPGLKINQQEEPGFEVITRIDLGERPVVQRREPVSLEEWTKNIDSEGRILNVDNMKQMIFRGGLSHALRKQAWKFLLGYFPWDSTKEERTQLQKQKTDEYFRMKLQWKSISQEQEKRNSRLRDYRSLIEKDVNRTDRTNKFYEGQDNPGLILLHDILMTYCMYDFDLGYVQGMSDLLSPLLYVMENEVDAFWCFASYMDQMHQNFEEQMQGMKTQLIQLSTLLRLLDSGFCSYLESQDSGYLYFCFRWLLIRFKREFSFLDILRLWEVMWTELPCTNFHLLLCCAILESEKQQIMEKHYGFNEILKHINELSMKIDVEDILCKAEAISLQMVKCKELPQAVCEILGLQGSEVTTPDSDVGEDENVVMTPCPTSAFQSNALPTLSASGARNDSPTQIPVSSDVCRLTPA
UniProt Q12788: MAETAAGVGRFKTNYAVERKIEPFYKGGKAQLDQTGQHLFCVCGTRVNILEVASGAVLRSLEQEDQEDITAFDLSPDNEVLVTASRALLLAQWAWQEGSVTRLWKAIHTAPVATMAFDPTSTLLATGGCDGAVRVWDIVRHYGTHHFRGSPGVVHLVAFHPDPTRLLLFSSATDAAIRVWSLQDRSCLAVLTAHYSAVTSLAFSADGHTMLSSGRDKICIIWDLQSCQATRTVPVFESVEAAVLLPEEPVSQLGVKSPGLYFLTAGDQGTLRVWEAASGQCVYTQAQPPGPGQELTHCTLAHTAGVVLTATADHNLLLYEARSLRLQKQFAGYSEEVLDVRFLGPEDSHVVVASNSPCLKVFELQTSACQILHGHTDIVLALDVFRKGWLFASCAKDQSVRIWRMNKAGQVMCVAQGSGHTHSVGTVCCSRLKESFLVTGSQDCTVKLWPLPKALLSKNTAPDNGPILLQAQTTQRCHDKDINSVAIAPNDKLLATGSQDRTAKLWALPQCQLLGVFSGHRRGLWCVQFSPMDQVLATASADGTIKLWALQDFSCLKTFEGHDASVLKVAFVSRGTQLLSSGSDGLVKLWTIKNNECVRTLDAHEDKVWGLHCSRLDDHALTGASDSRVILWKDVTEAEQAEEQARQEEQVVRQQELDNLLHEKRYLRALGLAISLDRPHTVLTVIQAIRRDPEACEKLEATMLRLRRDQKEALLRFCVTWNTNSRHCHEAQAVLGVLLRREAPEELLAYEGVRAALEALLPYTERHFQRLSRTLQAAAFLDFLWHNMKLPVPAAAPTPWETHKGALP

[2] = compound: NC(=O)c1cnc(N[C@@H]2CCCC[C@@H]2N)nc1Nc1cccc(-n2nccn2)c1
Summary of the method: as §1

[3] = compound: NC1(c2ccc(-c3nc4ccn5c(=O)[nH]nc5c4cc3-c3ccccc3)cc2)CCC1
Summary of the method: as §1

[4] = compound: NCC(=O)Nc1ccc(-n2nc(C(F)(F)F)cc2-c2ccc3c(ccc4ccccc43)c2)cc1
Summary of the method: as §1

[5] = compound: Nc1ccccc1NC(=O)c1ccc(CNC(=O)OCc2cccnc2)cc1 [entinostat]
Summary of the method: as §1

[6] = compound: O=C(CCCCCCC(=O)Nc1ccccc1)NO [vorinostat]
Summary of the method: as §1

[7] = compound: O=C(CCCCCCNC(=O)c1cnc(N(c2ccccc2)c2ccccc2Cl)nc1)NO [citarinostat]
Summary of the method: as §1

[8] = compound: O=C(O)c1ccc2c(c1)nc(Nc1cccc(Cl)c1)c1ccncc12 [silmitasertib]
Summary of the method: as §1

[9] = compound: O=C1NC(=O)C(c2cnc3ccccn23)=C1c1cn2c3c(cc(F)cc13)CN(C(=O)N1CCCCC1)CC2
Summary of the method: as §1

[10] = compound: c1cc(OCCN2CCCCC2)cc(-c2n[nH]c3ccc(-c4nnc[nH]4)cc23)c1
Summary of the method: as §1

Measured: log2 fold change

TBCE (UniProt Q15813)
inactive: [1] -0.02 | [2] -0.094 | [3] 0.015 | [4] -0.075 | [5] 0.054 | [6] 0.125 | [7] 0.008 | [8] 0.179 | [9] 0.146 | [10] -0.115

TFDP1 (UniProt Q14186)
inactive: [1] 0.102 | [2] -0.136 | [3] -0.012 | [4] -0.083 | [5] -0.094 | [6] 0.123 | [7] 0.022 | [8] 0.101 | [9] 0.075 | [10] -0.12

TIA1 (UniProt P31483)
inactive: [1] -0.022 | [2] -0.017 | [3] -0.009 | [4] -0.011 | [5] -0.026 | [6] 0.008 | [7] -0.031 | [8] -0.018 | [9] 0.014 | [10] -0.021

TBC1D5 isoform 2 (UniProt Q92609)
inactive: [1] -0.006 | [2] -0.103 | [3] -0.233 | [4] -0.058 | [5] 0.029 | [6] 0.086 | [7] 0.111 | [8] 0.031 | [9] -0.076 | [10] -0.094

TJAP1 (UniProt Q5JTD0)
inactive: [1] -0.047 | [2] 0.058 | [3] 0.004 | [4] -0.037 | [5] -0.038 | [6] -0.095 | [7] -0.028 | [8] -0.007 | [9] 0.047 | [10] -0.082

TCP1 (UniProt P17987)
inactive: [1] 0.023 | [2] 0.007 | [3] 0.011 | [4] 0.045 | [5] -0.005 | [6] 0.03 | [7] 0.004 | [8] -0.034 | [9] -0.007 | [10] -0.041

TELO2 (UniProt Q9Y4R8)
inactive: [1] -0.039 | [2] -0.1 | [3] -0.207 | [4] 0.037 | [5] 0.039 | [6] 0.137 | [7] 0.009 | [8] 0.067 | [9] 0.117 | [10] -0.075

TIMM21 (UniProt Q9BVV7)
inactive: [1] -0.041 | [2] -0.055 | [3] -0.087 | [4] -0.047 | [5] -0.015 | [6] 0.04 | [7] 0.052 | [8] 0.024 | [9] -0.016 | [10] -0.016

TLE3 isoform 4 (UniProt Q04726)
inactive: [1] 0.028 | [2] -0.026 | [3] -0.006 | [4] 0.021 | [5] -0.048 | [6] 0.037 | [7] 0.034 | [8] -0.015 | [9] -0.063 | [10] 0.008

TBCC (UniProt Q15814)
inactive: [1] 0.033 | [2] -0.075 | [3] -0.072 | [4] -0.023 | [5] 0.002 | [6] 0.01 | [7] 0.048 | [8] 0.003 | [9] -0.045 | [10] 0.009

TKT isoform 2 (UniProt P29401)
inactive: [1] 0.008 | [2] 0.02 | [3] 0.062 | [4] 0.042 | [5] -0.01 | [6] 0.022 | [7] -0.037 | [8] -0.088 | [9] -0.019 | [10] 0.052

TFG (UniProt Q92734)
inactive: [1] -0.022 | [2] 0.024 | [3] -0.011 | [4] 0.007 | [5] -0.009 | [6] -0.024 | [7] 0.035 | [8] 0 | [9] -0.026 | [10] -0.067

THADA (UniProt Q6YHU6)
inactive: [1] 0.004 | [2] -0.085 | [3] -0.147 | [4] -0.082 | [5] 0.014 | [6] -0.001 | [7] 0.121 | [8] -0.061 | [9] -0.025 | [10] -0.013

TGFBR3 (UniProt Q03167)
inactive: [1] 0.001 | [2] -0.023 | [3] -0.011 | [4] -0.038 | [5] -0.067 | [6] 0.049 | [7] 0.057 | [8] 0.058 | [9] -0.062 | [10] -0.016

TBL1X (UniProt O60907)
inactive: [1] 0.018 | [2] -0.017 | [3] -0.069 | [4] -0.025 | [5] -0.013 | [6] 0.065 | [7] 0.027 | [8] -0.031 | [9] -0.062 | [10] -0.04

TIAL1 isoform 2 (UniProt Q01085)
inactive: [1] -0.014 | [2] -0.026 | [3] -0.05 | [4] -0.048 | [5] -0.005 | [6] 0.025 | [7] -0.002 | [8] -0.003 | [9] 0.003 | [10] -0.036

TERF2 (UniProt Q15554)
inactive: [1] -0.071 | [2] -0.026 | [3] 0.142 | [4] 0.092 | [5] 0.078 | [6] 0.098 | [7] 0.018 | [8] 0.206 | [9] 0.061 | [10] -0.121

THUMPD3 (UniProt Q9BV44)
inactive: [1] 0.026 | [2] -0.04 | [3] -0.033 | [4] 0.024 | [5] 0.017 | [6] 0.028 | [7] 0.033 | [8] 0.008 | [9] -0.055 | [10] -0.012

TIMM10 (UniProt P62072)
inactive: [1] -0.004 | [2] 0.042 | [3] -0.027 | [4] -0.077 | [5] 0.058 | [6] -0.048 | [7] -0.012 | [8] 0.009 | [9] -0.04 | [10] -0.043

TBCA (UniProt O75347)
inactive: [1] -0.015 | [2] 0.039 | [3] 0.049 | [4] 0.02 | [5] -0.041 | [6] -0.076 | [7] -0.033 | [8] -0.038 | [9] -0.057 | [10] 0.046

Two entries drawn at random from the list so far, as already listed:
TIAL1 isoform 2 (UniProt Q01085)
inactive: [1] -0.014 | [2] -0.026 | [3] -0.05 | [4] -0.048 | [5] -0.005 | [6] 0.025 | [7] -0.002 | [8] -0.003 | [9] 0.003 | [10] -0.036

THUMPD3 (UniProt Q9BV44)
inactive: [1] 0.026 | [2] -0.04 | [3] -0.033 | [4] 0.024 | [5] 0.017 | [6] 0.028 | [7] 0.033 | [8] 0.008 | [9] -0.055 | [10] -0.012

(next part)

TGFBR1 isoform 2 (UniProt P36897)
inactive: [1] 0.029 | [2] 0.072 | [3] -0.041 | [4] 0.002 | [5] 0.093 | [6] -0.083 | [7] 0.017 | [8] 0.073 | [9] -0.052 | [10] -0.054

TFB2M (UniProt Q9H5Q4)
inactive: [1] -0.029 | [2] -0.066 | [3] -0.187 | [4] -0.066 | [5] 0.054 | [6] 0.027 | [7] 0.01 | [8] 0.046 | [9] -0.024 | [10] 0.003

THOC7 (UniProt Q6I9Y2)
inactive: [1] -0.025 | [2] 0.005 | [3] 0.032 | [4] -0.088 | [5] 0.013 | [6] -0.006 | [7] 0.038 | [8] 0.046 | [9] -0.058 | [10] -0.062

TBRG4 (UniProt Q969Z0)
inactive: [1] -0.103 | [2] -0.172 | [3] -0.58 | [4] -0.255 | [5] 0.214 | [6] 0.201 | [7] 0.128 | [8] 0.074 | [9] -0.191 | [10] -0.086

TKFC (UniProt Q3LXA3)
inactive: [1] 0 | [2] -0.003 | [3] -0.027 | [4] 0.018 | [5] -0.02 | [6] -0.077 | [7] 0.038 | [8] -0.039 | [9] -0.063 | [10] 0.009

TBC1D15 isoform 3 (UniProt Q8TC07)
inactive: [1] -0.013 | [2] -0.086 | [3] -0.202 | [4] -0.033 | [5] 0.118 | [6] 0.101 | [7] 0.036 | [8] 0.071 | [9] -0.008 | [10] -0.059

TFRC (UniProt P02786)
active: [3] -0.823
inactive: [1] -0.021 | [2] -0.031 | [4] -0.001 | [5] -0.008 | [6] -0.02 | [7] 0.062 | [8] 0.006 | [9] -0.023 | [10] -0.071

TIMM23 (UniProt O14925)
inactive: [1] 0.006 | [2] 0.027 | [3] -0.033 | [4] 0.061 | [5] -0.037 | [6] 0.002 | [7] 0.077 | [8] 0.031 | [9] -0.027 | [10] -0.059

TET1 (UniProt Q8NFU7)
inactive: [1] 0.023 | [2] -0.102 | [3] 0.048 | [4] -0.081 | [5] -0.05 | [6] -0.019 | [7] 0.125 | [8] -0.05 | [9] -0.034 | [10] 0.102

TBL3 (UniProt Q12788)
inactive: [1] 0.07 | [2] 0.059 | [3] 0.178 | [4] 0.016 | [5] -0.062 | [6] -0.024 | [7] -0.055 | [8] 0.149 | [9] 0.075 | [10] -0.122
